Binding data for six molecules are collected here from PMC12624773, “Receptor activity–modifying protein 3 enhances GLP-1-mediated insulin secretion” (The Journal of Biological Chemistry, 2025).

Amino acid sequences for entries named in this document (tags omitted). Residues count along the entry.
UniProt Q16602, residues 23-461: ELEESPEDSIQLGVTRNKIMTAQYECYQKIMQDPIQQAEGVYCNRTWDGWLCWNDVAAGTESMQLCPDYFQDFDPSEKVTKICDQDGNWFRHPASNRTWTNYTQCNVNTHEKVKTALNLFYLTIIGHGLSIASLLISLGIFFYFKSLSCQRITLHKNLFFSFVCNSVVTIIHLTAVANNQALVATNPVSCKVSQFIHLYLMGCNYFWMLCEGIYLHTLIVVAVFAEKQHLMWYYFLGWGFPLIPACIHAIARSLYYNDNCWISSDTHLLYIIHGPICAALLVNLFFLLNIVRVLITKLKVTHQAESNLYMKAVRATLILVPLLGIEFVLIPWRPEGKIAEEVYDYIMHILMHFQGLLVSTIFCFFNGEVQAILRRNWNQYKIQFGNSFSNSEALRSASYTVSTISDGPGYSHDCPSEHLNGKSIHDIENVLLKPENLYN
UniProt P49407: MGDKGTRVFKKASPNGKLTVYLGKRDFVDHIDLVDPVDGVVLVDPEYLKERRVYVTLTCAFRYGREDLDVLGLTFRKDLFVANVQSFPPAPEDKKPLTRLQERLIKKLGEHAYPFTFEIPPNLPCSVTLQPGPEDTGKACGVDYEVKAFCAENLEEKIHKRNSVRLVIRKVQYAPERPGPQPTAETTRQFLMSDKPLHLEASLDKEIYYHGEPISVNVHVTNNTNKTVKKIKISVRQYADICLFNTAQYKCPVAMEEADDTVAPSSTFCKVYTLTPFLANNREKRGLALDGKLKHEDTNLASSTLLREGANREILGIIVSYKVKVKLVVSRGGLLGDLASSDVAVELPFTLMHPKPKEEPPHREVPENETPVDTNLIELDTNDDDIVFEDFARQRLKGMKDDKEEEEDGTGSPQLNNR
UniProt P32121: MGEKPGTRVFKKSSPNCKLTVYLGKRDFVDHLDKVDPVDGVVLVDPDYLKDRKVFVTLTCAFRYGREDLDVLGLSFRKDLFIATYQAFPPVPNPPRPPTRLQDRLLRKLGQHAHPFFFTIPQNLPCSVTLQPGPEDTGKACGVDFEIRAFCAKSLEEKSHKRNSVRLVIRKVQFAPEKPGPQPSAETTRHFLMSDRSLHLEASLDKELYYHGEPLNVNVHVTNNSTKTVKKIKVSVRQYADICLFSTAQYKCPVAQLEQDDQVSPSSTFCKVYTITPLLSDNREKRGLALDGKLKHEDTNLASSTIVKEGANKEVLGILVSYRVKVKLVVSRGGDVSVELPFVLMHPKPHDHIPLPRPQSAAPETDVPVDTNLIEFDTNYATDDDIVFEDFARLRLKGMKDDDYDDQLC

No constants are given. Whether binding was seen depends on the method and setting. In cells and extracts the contact can be indirect. Some binding calls cover weakened binding; strength is not graded here.

The target in test [1] is GLP-1R–Nluc (human) (UniProt P43220). Put plainly: FRET or BRET; recruitment of β-arrestin1/2–YFP to GLP-1R–Nluc in INS-1 832/3 cells without endogenous GLP-1R, with vector or RAMP3; KREBs-Ringer with 0.1% BSA, pH 7.4. In general terms: In BRET a luciferase serves as donor, and the signal depends on an acceptor being close.
Test [2] shares this target. Description: FRET or BRET; agonist-stimulated recruitment of β-arrestin–YFP to GLP-1R–Nluc in HEK293T cells, with pcDNA3.1 or FLAG-RAMP3 (1:5:2 ratio); KREBs with 0.1% BSA; read 1 h.
Test [3] has as its target T1, LgBiT-GLP-1R (human), P43220.
T1 chain: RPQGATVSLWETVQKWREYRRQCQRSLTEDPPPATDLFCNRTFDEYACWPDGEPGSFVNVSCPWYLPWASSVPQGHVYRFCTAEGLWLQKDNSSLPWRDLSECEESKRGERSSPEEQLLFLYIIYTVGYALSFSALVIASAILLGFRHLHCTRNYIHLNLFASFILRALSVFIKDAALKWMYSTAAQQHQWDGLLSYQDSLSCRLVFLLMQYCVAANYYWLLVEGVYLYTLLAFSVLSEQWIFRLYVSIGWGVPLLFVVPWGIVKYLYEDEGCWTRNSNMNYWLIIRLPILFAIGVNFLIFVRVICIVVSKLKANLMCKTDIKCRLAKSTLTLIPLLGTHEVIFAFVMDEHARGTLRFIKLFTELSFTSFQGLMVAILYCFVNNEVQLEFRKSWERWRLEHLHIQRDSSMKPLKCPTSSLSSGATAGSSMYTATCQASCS
Put plainly: split reporter + FRET or BRET; LgBiT-GLP-1R and SmBiT-RAMP coexpressed in HEK293T cells; the complex is read by BRET from the complemented NanoBiT luciferase to bound Ex-4-Red. As to conditions: remark: other sources report otherwise.

The target of test [4] is Nluc–GLP-1R (Homo sapiens, UniProt P43220). Description: FRET or BRET; cell-surface NanoBRET in Cos7 cells: 50 ng Nluc-GPCR and increasing amounts of SNAP-RAMP, SNAP-RAMP labelled with cell-impermeable SNAP-Surface Alexa Fluor 488; KREBs with 0.1% BSA; ratio at 10 min.
Test [5] addresses Nluc–CLR (UniProt Q16602). The test is described as above.
The target in test [6] is LgBiT-GLP-1R (human) (UniProt P43220). Description: split reporter + FRET or BRET; LgBiT-GLP-1R and SmBiT-RAMP coexpressed in HEK293T cells; the complex is read by BRET from the complemented NanoBiT luciferase to bound Ex-4-Red.

“β-arrestin1–YFP (from UniProt P49407 1-418)”: the binding result in test [1] and in test [2] was “binds” throughout.
For “β-arrestin2–YFP (from UniProt P32121 1-409)”, the binding result in test [1] and in test [2] was “binds” in each case.

B1: SmBiT-RAMP1, O60894 27-148 (protein)
chain: CQEANYGALLRELCLTQFQVDMEAVGETLWCDWGRTIRSYRELADCTWHMAEKLGCFWPNAEVDRFFLAVHGRYFRSCPISGRAVRDPPGSILYPFIVVPITVTLLVTALVVWQSKRTEGIV
With B1, the binding result in test [3] is recorded as “no binding”.

B2: SmBiT-RAMP2, O60895 43-175 (protein)
chain: QPLPTTGTPGSEGGTVKNYETAVQFCWNHYKDQMDPIEKDWCDWAMISRPYSTLRDCLEHFAELFDLGFPNPLAERIIFETHQIHFANCSLVQPTFSDPPEDVLLAMIIAPICLIPFLITLVVWRSKDSEAQA
B2: in test [3], the binding result was “no binding”.

B3: SNAP-RAMP3 (protein, UniProt O60896 24-148)
chain: RAGGCNETGMLERLPLCGKAFADMMGKVDVWKWCNLSEFIVYYESFTNCTEMEANVVGCYWPNPLAQGFITGIHRQFFSNCTVDRVHLEDPPDEVLIPLIVIPVVLTVAMAGLVVWRSKRTDTLL
modifications: SNAP-Surface Alexa Fluor 488 conjugated to the SNAP tag
In the case of B3, the binding entry in test [4] and in test [5] was “binds” each time.

B4: SmBiT-RAMP3 (protein, UniProt O60896 24-148)
chain: RAGGCNETGMLERLPLCGKAFADMMGKVDVWKWCNLSEFIVYYESFTNCTEMEANVVGCYWPNPLAQGFITGIHRQFFSNCTVDRVHLEDPPDEVLIPLIVIPVVLTVAMAGLVVWRSKRTDTLL
Consider B4, for which the binding result in test [6] is “binds”.
